The campaign covered roughly 390,000 compounds. About 610 (0.16%) were called active. The inconclusive results got no clear call from the source; some entries with a clear call stand among them for comparison. Calls come from the whole dose curve; as a rule, active = well fitted inhibition curve with a large enough effect; inconclusive = small, poorly fitted or top-dose-only effect, or effect the other way, or another doubt; inactive = no such curve, though single readings can be large or run the other way. Where the call is inconclusive, the potency comes from a doubtful curve fit.
Assay: Nrf2 qHTS screen for inhibitors: counterscreen for cytotoxicity
Details: A549 ARE-Fluc cells, CellTiter-Fluor viability, 18-24 h; activity change, negative = cytotoxicity: at 46 µM (top of the series)
Summary of the method: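 A549 ARE-Fluc cells in 5% FBS OPTI-MEM, 5000 cells/well, rested 2 h then exposed to compounds in concentration-response for 18-24 h at 37 °C. Viability by CellTiter-Fluor fluorescence (Ex 405/Em 525) after 30 min; luciferase luminescence (BugLite, 15 min, RT) read afterwards.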
% is set by controls: 0 for no effect and ±100 for the full control effect; potency is the fitted concentration of half-maximal effect.

| Compound | Potency | activity change, negative = cytotoxicity |
| --- | --- | --- |
| COc1ccc2c(c1OC)C(=O)N(c1cccc(C)c1)C2 | inconclusive: 32.6 µM [activator, partial curve, poor fit] |  |
| O=C(NC1CCCC1)C1CCN(C(=O)c2ccc(-c3ccccc3)cc2)CC1 |  | inactive: 4.41% |
| Cn1nnnc1SCCCNCc1cccc(OCc2ccccc2Cl)c1 | inconclusive: 16.4 µM [falling, partial curve, poor fit] |  |
| COC(=O)c1oc2ccccc2c1N |  | inactive: -3.4% |
| O=C(Nc1nc(-c2ccccn2)cs1)c1ccc(Cl)s1 | inconclusive: 1.64 µM [falling, partial curve] |  |
| Fc1ccc(F)c(C2=NNC(=Nc3ccccc3F)SC2)c1 | inconclusive: 16.4 µM [falling, partial curve, poor fit] |  |
| NC(=O)CC(NC(=O)c1ccccc1)c1ccc(NC2CCCCCCC2)c([N+](=O)[O-])c1 (stereo not given) | inconclusive: 29.1 µM [falling, partial curve, poor fit] |  |
| Cc1cccc(C)c1NC(=O)CN1C(=O)c2cccc3cccc1c23 | inconclusive: 23.1 µM [activator, partial curve, poor fit] |  |
| O=C(NCCC(c1ccccc1)c1ccccc1)c1cnccn1 | inconclusive: 10.3 µM [activator, partial curve, poor fit] |  |
| COc1ccc(C2CC(c3c(O)cc(C)oc3=O)=NCCS2)c(OC)c1 (stereo not given) | inconclusive: 1.16 µM [falling, partial curve, poor fit] |  |
| Cc1cc(C)c(OCC(=O)N(Cc2cccc(F)c2)Cc2ccco2)c(C)c1 |  | inactive: 1.37% |
| CCc1nn(CC(=O)N2CCN(c3cccc(C(F)(F)F)c3)CC2)c(=O)c2cccn12 |  | inactive: -1.4% |
| OCCNc1c2ccccc2nc2ccccc12 | inconclusive: 16.4 µM [falling, partial curve] |  |
| COc1ccc(N2CCN(C(=O)c3cccc(N4C(=O)C5C6C=CC(C6)C5C4=O)c3)CC2)cc1 (stereo not given) |  | inactive: 1.91% |
| CCOC(=O)CCc1ccc(NC(=O)/C=C/c2ccc([N+](=O)[O-])o2)cc1 | inconclusive: 16.4 µM [falling, single point] |  |
| N#C/C(=C/c1cccc([N+](=O)[O-])c1)C(=O)Nc1ccccc1O | inconclusive: 11.6 µM [falling, partial curve] |  |
| O=[N+]([O-])c1ccc(C(=S)N2CCC(Cc3ccccc3)CC2)cc1 | inconclusive: 23.1 µM [activator, partial curve, poor fit] |  |
| CCOC(=O)CN1C(=O)S/C(=C\c2ccc(-c3ccc(C(=O)O)c(Cl)c3)o2)C1=O | inconclusive: 16.4 µM [falling, single point] |  |
| COc1ccc(CCN2C(=O)C3C4C=CC(C3C2=O)C2C(=O)N(CCc3ccc(OC)c(OC)c3)C(=O)C42)cc1OC (stereo not given) |  | inactive: -7.76% |
| CCc1nnc(SCC(=O)NC2CCCC2)nc1CC | inconclusive: 1.16 µM [falling, partial curve, poor fit] |  |
| CN(C)c1ccc(N=Nc2ccc(C(=O)O)cc2)cc1 | inconclusive: 20.6 µM [falling, single point] |  |
| CC(CCc1ccccc1)NC(=O)c1cc2sccc2n1C (stereo not given) | inconclusive: 18.4 µM [falling, partial curve, poor fit] |  |

Retrieved by structure from above:

| Compound | Potency | activity change, negative = cytotoxicity |
| --- | --- | --- |
| CC(CCc1ccccc1)NC(=O)c1cc2sccc2n1C (stereo not given) | inconclusive: 18.4 µM [falling, partial curve, poor fit] |  |
| COc1ccc(CCN2C(=O)C3C4C=CC(C3C2=O)C2C(=O)N(CCc3ccc(OC)c(OC)c3)C(=O)C42)cc1OC (stereo not given) |  | inactive: -7.76% |

The list continues:

| Compound | Potency | activity change, negative = cytotoxicity |
| --- | --- | --- |
| CCN(CC)S(=O)(=O)c1ccc(N2CCN(C)CC2)c(NC(=O)CN2C(=O)NC3(CCCCC3)C2=O)c1 | inconclusive: 10.3 µM [activator, partial curve, poor fit] |  |
| COc1ccc(Br)cc1CN(C)CC(O)COc1ccc(Br)cc1 (stereo not given) |  | inactive: 0.413% |
| CCC(=O)N1CCc2cc(Br)cc(S(=O)(=O)CCC(=O)NCc3ccc(F)cc3)c21 |  | inactive: 0.85% |
| CCCOc1ccc(NC(=O)C2CC(=O)N/C(=N/N=C(C)/C=C/c3ccc(N(C)C)cc3)S2)cc1 (stereo not given) | inconclusive: 20.6 µM [falling, single point] |  |
| NCCNC(=O)c1c(O)c2cccc3c2n(c1=O)CCC3 | inconclusive: 29.1 µM [falling, single point] |  |
| CC(=O)c1c(C)[nH]c(C(=O)CSc2nc3ccc(C)cc3[nH]2)c1C |  | inactive: -6.61% |
| CC(=O)Nc1cccc(-c2csc(N)n2)c1 | inconclusive: 5.8 µM [activator, full curve] |  |
| CCC(C)n1c(=S)[nH]c2c(sc3ccc([N+](=O)[O-])cc32)c1=O (stereo not given) | inconclusive: 32.6 µM [falling, partial curve, poor fit] |  |
| CCOC(=O)c1cc(S(=O)(=O)N2CCN(c3ccc(F)cc3)CC2)[nH]n1 |  | inactive: 3.87% |
| C=C(C)c1cccc(C(C)(C)NC(=O)Nc2cc(C)ccn2)c1 | inconclusive: 25.9 µM [falling, partial curve] |  |
| O=C(C1CCCN(Cc2ccccc2F)C1)N1CCCC1 (stereo not given) | inconclusive: 23.1 µM [activator, partial curve, poor fit] |  |
| Nc1nc2ccccc2n1Cc1ccc(Cl)c(Cl)c1 | inconclusive: 23.1 µM [activator, partial curve, poor fit] |  |
| CC(C)Cn1cc(C(=O)N2CCN(c3cccc(Cl)c3)CC2)c2c3ccccc3n(C)c2c1=O | inconclusive: 23.1 µM [falling, partial curve, poor fit] |  |
| COc1ccc(C(F)(F)F)cc1NC(=O)C(OC(=O)CNC(=O)c1ccccc1)c1ccccc1 (stereo not given) |  | inactive: 6.55% |
| COc1ccc(OC)c(CNc2sc3c(c2C(=O)Nc2cc(OC)ccc2OC)CCCC3)c1 | inconclusive: 29.1 µM [falling, single point] |  |
| CCC(=O)N1N=C(c2c(-c3ccccc3)c3cc(Cl)ccc3[nH]c2=O)CC1c1ccco1 (stereo not given) | inconclusive: 18.4 µM [falling, partial curve, poor fit] |  |
| CCN(CC)C(=O)C1CCCN(c2ccc([N+](=O)[O-])cc2)C1 (stereo not given) | inconclusive: 16.4 µM [falling, partial curve, poor fit] |  |
| CC(C)(C)OC(=O)C[C@@H]1C/C=C\C[C@@H](CC(=O)N(CCO)Cc2ccccc2)C(=O)NC[C@H](c2ccccc2)OC1=O | inconclusive: 29.1 µM [falling, partial curve, poor fit] |  |
| CCOc1cc(/C=C2\SC(=S)N(NS(=O)(=O)c3ccc(C)cc3)C2=O)ccc1O | inconclusive: 7.31 µM [falling, single point] |  |
| CCn1cc2nc(SCc3ccc(F)cc3)n(Cc3ccc(Cl)cc3)c(=O)c2n1 |  | inactive: 4.36% |
| CCN1CCN(S(=O)(=O)c2ccc(Cl)c(C(=O)N(C)Cc3ccc(C(C)(C)C)cc3)c2)CC1 | inconclusive: 23.1 µM [falling, partial curve, poor fit] |  |
| CCCN(CC(=O)Nc1ccccc1C)C(=O)CCl | inconclusive: 29.1 µM [falling, single point] |  |

| Compound | Potency | activity change, negative = cytotoxicity |
| --- | --- | --- |
| CCOc1cc(C2C(C(=O)OC)=C(C)NC3=C2C(=O)c2ccccc23)c(Br)cc1O (stereo not given) | inconclusive: 29.1 µM [falling, single point] |  |
| O=c1c(=O)n(Cc2c(F)cccc2Cl)ccn1Cc1ccccc1 | inconclusive: 29.1 µM [falling, single point] |  |
| C=CCN(CC=C)S(=O)(=O)c1ccc(C(=O)Nc2nnc(COC)o2)cc1 | inconclusive: 16.4 µM [falling, single point] |  |
| O=C(N/N=C/c1c[nH]c2ccccc12)c1cc(-c2ccc(-c3ccccc3)cc2)n[nH]1 | active: 18.4 µM |  |
| C/C(=N\Nc1ccc([N+](=O)[O-])cc1)c1cc2ccccc2o1 | inconclusive: 23.1 µM [falling, partial curve, poor fit] |  |
| O=C1OC(c2ccccc2)Cc2cc(C(=O)N3CCN(c4ccc(F)cc4)CC3)ccc21 (stereo not given) | inconclusive: 23.1 µM [falling, partial curve, poor fit] |  |
| Cc1cccc(OCC(=O)NCCCNC(=O)c2cccnc2)c1 |  | inactive: 3.39% |
| N=c1c(C(=O)NCCN2CCOCC2)cc2c(=O)n3ccccc3nc2n1CCCN1CCOCC1 | inconclusive: 23.1 µM [falling, partial curve, poor fit] |  |
| OCCCc1nc2n(n1)C(c1ccccc1)C=C(c1ccccc1)N2 (stereo not given) | inconclusive: 29.1 µM [activator, single point] |  |
| Cn1cnnc1Sc1ccc(/C=C/C(=O)c2ccc(O)cc2)cc1[N+](=O)[O-] | inconclusive: 16.4 µM [falling, single point] |  |
| Cc1cc(C)cc(NC(=O)Cn2c3ncccc3c(=O)n2-c2ccc(C)c(C)c2)c1 |  | inactive: -0.388% |
| C/C(=N/NC(=O)c1nnn(-c2nonc2N)c1-c1ccccc1)c1ccc2c(c1)OCO2 |  | inactive: 2.68% |
| OC(c1ccccc1)(c1ccccc1)C1CCN(C(=S)NCCc2ccccc2)CC1 | inconclusive: 29.1 µM [falling, single point] |  |
| COc1ccc(NC(=O)COC(=O)Cn2cnc3ccccc32)cc1 |  | inactive: 10.2% |
| CCOc1cccc(C(=O)Nc2ccc3oc(Cc4ccc(Cl)cc4)nc3c2)c1 | inconclusive: 29.1 µM [falling, single point] |  |
| COc1cc(Nc2c3c(nc4ccccc24)CCC3)cc(OC)c1OC | inconclusive: 7.31 µM [falling, partial curve] |  |
| Cc1cccc(C#Cc2ccccc2)n1 |  | inactive: 0.15% |
| COc1ccc(-c2nc(NC(=O)C3CCN(c4nc5ccccc5o4)CC3)sc2C)cc1 | inconclusive: 29.1 µM [falling, single point] |  |
| O=C(NN1C(=O)/C(=C/c2cccs2)SC1=S)c1ccncc1 | inconclusive: 8.2 µM [falling, partial curve] |  |
| CC1CCCC(NCC(O)COC(c2ccc(F)cc2)c2ccc(F)cc2)C1C (stereo not given) | inconclusive: 29.1 µM [falling, single point] |  |
| O=C(Nc1cccc(S(=O)(=O)Nc2ccc(Cl)cc2)c1)c1ccc(Cl)nc1 | inconclusive: 14.6 µM [falling, partial curve] |  |

Source: PubChem BioAssay AID504648 (National Center for Advancing Translational Sciences (NCATS), 2011)
